Experimental data as given in article PMC10036544.
Results are given in words; binding and its absence hold for the method and conditions named. Binding seen in cells or lysates may run through a third protein. Some entries that bind do so weakly or less than the wild type.

Protein sequences, listed by entry. Tags and fused reporters are not part of them. Residues count along the entry.
UniProt Q8N8S7: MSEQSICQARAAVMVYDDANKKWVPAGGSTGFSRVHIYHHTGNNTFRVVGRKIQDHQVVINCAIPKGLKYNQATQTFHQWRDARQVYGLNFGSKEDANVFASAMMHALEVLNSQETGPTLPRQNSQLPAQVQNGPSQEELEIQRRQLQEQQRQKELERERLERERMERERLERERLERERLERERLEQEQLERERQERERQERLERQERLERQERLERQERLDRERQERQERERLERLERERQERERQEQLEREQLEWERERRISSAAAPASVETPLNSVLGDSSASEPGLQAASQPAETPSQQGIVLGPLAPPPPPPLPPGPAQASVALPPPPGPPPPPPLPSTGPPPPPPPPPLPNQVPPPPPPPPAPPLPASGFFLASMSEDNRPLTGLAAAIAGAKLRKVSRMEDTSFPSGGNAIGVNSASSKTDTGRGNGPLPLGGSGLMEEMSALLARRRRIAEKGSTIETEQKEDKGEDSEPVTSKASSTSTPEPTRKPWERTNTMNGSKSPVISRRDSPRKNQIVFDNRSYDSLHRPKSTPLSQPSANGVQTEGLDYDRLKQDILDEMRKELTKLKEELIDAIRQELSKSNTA
UniProt P02545, residues 1-646: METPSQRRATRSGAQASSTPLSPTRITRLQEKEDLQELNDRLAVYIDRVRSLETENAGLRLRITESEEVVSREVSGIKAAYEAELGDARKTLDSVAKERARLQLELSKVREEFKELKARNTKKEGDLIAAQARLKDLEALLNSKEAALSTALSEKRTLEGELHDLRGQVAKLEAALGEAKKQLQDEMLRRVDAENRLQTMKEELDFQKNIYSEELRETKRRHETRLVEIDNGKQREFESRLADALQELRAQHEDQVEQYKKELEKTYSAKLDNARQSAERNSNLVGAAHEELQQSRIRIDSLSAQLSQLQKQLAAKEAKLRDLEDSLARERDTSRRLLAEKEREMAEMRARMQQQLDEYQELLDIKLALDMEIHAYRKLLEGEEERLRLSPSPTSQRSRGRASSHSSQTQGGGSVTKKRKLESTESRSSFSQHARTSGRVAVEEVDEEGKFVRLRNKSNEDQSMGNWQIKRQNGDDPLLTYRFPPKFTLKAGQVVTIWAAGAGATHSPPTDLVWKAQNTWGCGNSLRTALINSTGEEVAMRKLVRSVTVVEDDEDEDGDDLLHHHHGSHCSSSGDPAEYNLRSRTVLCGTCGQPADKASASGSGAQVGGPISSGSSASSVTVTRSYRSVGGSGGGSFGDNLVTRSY

Biological target: nesprin-2 (encoded by SYNE2), endogenous (human (endogenous in Met4)) (UniProt Q8WXH0)
Experiment: co-IP; endogenous nesprin-2 immunoprecipitated (anti-nesprin-2, Abcam ab217057, Protein G Dynabeads, overnight, 4 °C) from 1 mg lysate in NETN buffer (100 mM NaCl, 20 mM Tris-HCl pH 7.5, 0.5 mM EDTA, 0.5% NP-40); western blotting; Met4 cells, and for actin, lamin A/C and SUN2 also Met4 Mena^−/− cells (for actin and lamin A/C also Met4 Mena^−/− +Mena11a cells)

Substance: Mena (human Enabled homologue, encoded by ENAH) (from UniProt Q8N8S7 1-591)
- binding: binds

Substance: lamin A/C (from UniProt P02545 1-646)
- binding: binds
